Test results from publication PMC5850909.
No constants are given. Whether binding was seen depends on the method and setting. In cells and extracts the contact can be indirect. Some results given as binding are weak or reduced against the parent protein; the word gives no strength.

Amino acid sequences for entries named in this document (tags omitted). A change or cut given only in a name is not applied to a line headed by its entry.
UniProt Q8WXI2: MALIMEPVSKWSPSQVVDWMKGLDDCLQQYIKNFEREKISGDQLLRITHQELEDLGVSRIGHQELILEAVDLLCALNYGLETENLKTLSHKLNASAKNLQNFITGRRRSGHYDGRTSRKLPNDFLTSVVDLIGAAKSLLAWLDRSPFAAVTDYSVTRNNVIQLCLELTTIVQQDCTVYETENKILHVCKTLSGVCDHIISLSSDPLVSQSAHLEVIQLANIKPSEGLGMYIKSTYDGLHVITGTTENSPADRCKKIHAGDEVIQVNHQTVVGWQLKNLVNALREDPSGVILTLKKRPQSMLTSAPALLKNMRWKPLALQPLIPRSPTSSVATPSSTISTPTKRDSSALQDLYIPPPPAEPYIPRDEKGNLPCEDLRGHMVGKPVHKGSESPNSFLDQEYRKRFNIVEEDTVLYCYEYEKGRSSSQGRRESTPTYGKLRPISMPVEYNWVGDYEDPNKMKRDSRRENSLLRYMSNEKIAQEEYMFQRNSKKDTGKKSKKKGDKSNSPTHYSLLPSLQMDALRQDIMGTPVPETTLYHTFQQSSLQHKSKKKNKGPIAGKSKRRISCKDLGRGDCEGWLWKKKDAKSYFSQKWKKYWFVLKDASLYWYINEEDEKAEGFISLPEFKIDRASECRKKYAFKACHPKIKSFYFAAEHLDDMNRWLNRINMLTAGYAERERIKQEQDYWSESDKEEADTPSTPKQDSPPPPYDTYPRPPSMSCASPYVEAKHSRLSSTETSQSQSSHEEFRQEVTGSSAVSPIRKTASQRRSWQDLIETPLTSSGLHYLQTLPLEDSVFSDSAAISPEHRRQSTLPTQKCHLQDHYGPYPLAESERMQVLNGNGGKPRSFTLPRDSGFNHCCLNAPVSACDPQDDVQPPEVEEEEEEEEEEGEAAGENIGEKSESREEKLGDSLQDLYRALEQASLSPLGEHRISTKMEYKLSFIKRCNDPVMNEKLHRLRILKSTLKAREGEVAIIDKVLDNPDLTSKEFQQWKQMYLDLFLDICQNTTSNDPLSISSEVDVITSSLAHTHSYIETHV
UniProt Q9HAU4: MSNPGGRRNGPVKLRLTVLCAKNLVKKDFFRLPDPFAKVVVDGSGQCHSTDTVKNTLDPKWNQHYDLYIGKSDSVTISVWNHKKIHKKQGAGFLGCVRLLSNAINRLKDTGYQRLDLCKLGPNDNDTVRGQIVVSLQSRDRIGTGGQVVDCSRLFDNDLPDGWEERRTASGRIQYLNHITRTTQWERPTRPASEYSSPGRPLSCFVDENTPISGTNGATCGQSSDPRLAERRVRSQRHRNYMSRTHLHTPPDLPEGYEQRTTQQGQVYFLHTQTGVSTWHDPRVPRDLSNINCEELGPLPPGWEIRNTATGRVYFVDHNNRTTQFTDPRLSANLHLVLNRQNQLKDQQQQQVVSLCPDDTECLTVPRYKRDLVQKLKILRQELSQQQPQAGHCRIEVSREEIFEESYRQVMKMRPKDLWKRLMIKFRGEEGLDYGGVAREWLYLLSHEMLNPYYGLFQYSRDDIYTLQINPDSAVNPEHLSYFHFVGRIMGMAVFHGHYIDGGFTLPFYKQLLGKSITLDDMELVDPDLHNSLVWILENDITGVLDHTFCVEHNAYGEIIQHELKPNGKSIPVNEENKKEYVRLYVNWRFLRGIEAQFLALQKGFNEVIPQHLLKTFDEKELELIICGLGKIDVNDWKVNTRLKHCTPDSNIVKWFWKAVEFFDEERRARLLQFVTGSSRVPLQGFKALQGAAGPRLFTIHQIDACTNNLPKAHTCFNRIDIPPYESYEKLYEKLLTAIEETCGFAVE
UniProt Q9HCE7: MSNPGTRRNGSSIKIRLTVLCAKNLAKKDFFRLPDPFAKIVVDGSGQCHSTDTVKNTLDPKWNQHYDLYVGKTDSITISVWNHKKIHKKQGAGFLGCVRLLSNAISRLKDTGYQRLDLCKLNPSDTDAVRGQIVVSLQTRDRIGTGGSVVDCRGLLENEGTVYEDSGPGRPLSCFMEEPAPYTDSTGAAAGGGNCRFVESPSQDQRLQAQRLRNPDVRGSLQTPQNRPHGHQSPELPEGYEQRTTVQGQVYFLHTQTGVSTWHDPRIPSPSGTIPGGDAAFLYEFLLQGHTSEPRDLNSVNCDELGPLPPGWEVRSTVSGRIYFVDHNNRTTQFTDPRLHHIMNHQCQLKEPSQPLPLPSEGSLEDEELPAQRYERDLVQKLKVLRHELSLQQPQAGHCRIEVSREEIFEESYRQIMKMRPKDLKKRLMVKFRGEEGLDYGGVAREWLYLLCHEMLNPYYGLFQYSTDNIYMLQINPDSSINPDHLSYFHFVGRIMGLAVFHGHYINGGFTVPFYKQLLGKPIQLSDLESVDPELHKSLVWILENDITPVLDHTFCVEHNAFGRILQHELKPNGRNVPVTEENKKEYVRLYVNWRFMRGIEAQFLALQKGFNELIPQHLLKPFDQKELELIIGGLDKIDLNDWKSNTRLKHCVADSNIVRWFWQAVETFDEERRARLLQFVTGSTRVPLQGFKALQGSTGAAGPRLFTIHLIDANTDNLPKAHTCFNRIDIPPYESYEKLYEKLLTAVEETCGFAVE

Experiments:
[1] = molecular target: Connector enhancer of kinase suppressor of ras 2 (CNKSR2), endogenous (human (endogenous in MDA-MB-231 and HEK293)) (UniProt Q8WXI2); experiment: co-IP; endogenous proteins from MDA-MB-231 lysate (70 mM NaCl, 50 mM Tris pH 8, 0.5% NP-40); IP with rabbit CNKSR2 or rabbit Smurf2 antibody, normal rabbit IgG as control, protein A sepharose; immunoblot
[2] = molecular target: Smad ubiquitin regulatory factor 2 (Smurf2), endogenous (human (endogenous in MDA-MB-231)) (UniProt Q9HAU4); experiment: as above
[3] = molecular target: Flag-tagged Smurf2 C716A (UniProt Q9HAU4); experiment: co-IP; HEK293 cells transfected with Flag-Smurf2 WT, Flag-Smurf2 C716A or empty vector, 48 h; IP with anti-Flag antibody; immunoblot for endogenous CNKSR2
[4] = molecular target: Flag-tagged Smurf2 WT (UniProt Q9HAU4); experiment: as above

Smad ubiquitin regulatory factor 2 (Smurf2), endogenous (from UniProt Q9HAU4 1-748)
binding [1]: binds

Smurf1, endogenous (from UniProt Q9HCE7 1-757)
binding [1]: no binding

Connector enhancer of kinase suppressor of ras 2 (CNKSR2), endogenous (from UniProt Q8WXI2 1-1034)
binding [2]: binds | binding [3]: binds | binding [4]: binds
